± gives the standard deviation. This is a selection; strong and weak results do not stand in their true shares. Many entries were measured with a wide error.
Each sequence was assayed on MIWI (PIWIL1) piRISC loaded with piRNA #2 (30 nt) (assay: pre-steady-state target cleavage rate (min^-1); MIWI and MILI are mouse PIWI proteins and EfPiwi is from a freshwater sponge; tags in brackets are library labels; higher = faster piRNA-guided slicing of the target). Settings: guide: piRNA #2 5'p-UUAGGUAACCCAGUAGAUCCAGAGGAAUUC; auxiliary factor: 500 nM mouse GTSF1.
Procedure: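 Cleave-'n-Seq: a library of target RNAs (target site embedded in constant flanks, ACAGCATTCCGCGTTAGTGATATCCG... 5' flank; DNA-blocked outside the site) at 0.1 nM was incubated with 1 nM active mouse MILI or MIWI piRISC (synthetic 5'-monophosphorylated piRNA guide) with or without 500 nM mouse GTSF1 at 33 °C for 1 min to 16 h. Uncleaved targets were sequenced and normalised to non-target controls, and the pooled three trials were fitted to a burst-and-steady-state model to give the pre-steady-state cleavage rate (min^-1; k3 is constrained to at most 1e-4). Sequence is the target site only; target names encode pairing extent (gX:gY) and contiguous / 1-mismatch / 2-mismatch / bulge geometry. Fits with R² ≤ 0 are excluded.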

Row | Sequence | pre-steady-state target cleavage rate
1 | CUUAAGGAGACCUUCUACGGGUUACCUAA | 0.00139 ± 0.0059
2 | CUUAAGGAGACCAUCUACUGCCUUACCUAA | 0.00137 ± 0.0045
3 | CUUAAGGAGACCUAGAACUGGGUUACCUUA | 0.000423 ± 0.0089
4 | CUUAAGGAGUCGAUCUACUGGGUUACCAAA | 0.000232 ± 0.037
5 | CUUAAGGAGUGGAUCUACUGGGAUUCCUAA | 0.00101 ± 0.0095
6 | CUUAAGGACUGGAUGUACUGGGUAACCUAA | 0.00256 ± 0.014
7 | CUUAAGGAGACCAUCUGCUGGGUUACCUAA | 0.00263 ± 0.0034
8 | CUUAAGGAGACCUAGUACUGGGUUACCAUAA | 0.00115 ± 0.013
9 | CAAUUCCUCUGGAUCUGACUGGGUUACCUAA | 0.00176 ± 0.0059
10 | CUUAAGGAGACCAUCUACUGGGUUACGAUA | 0.000215 ± 0.017
11 | CUUAACCUCUGGAUCUACUGGCAAACCUAA | 0.00179 ± 0.0058
12 | CUUAAGGAGACCUACCUACUGGGUUACCUAA | 0.00174 ± 0.0083
13 | CUUAAGGUCUGGAUCUACUGCGGUUACCUAA | 0.000228 ± 0.016
14 | CUUAACCUCUGGAUCUUCUGGGUUUCCUAA | 0.042 ± 0.0092
15 | CUAUUCCUCUGGAUCUACUAGGGUUACCUAA | 0.00272 ± 0.0049
16 | CUUAAGGAGUGGAUCUACUGGGCUUACCUAA | 0.00121 ± 0.016
17 | CUAUUCCUCUCGAUCAACUGGGUUACCUAA | 0.637 ± 0.047
18 | CUUAACCUCUGGUUCUACUGCGUUACCUAA | 0.754 ± 0.077
19 | CUUAAGGACUGGAUCUAGUGGGUAACCUAA | 0.00329 ± 0.01
20 | CUUAAGGAGACAAUCUACUGGGUUACCUAA | 0.003 ± 0.0043
21 | CUUAAGGAGACCUUCUACUGGGUUACGAUA | 0.000669 ± 0.0099
22 | CUUAAGGAGACCUAGCACUGGGUUACCUAA | 0.00117 ± 0.007
23 | CUUAAGGAGACCAUCAUGUGGGUUACCUAA | 0.00064 ± 0.016
24 | CUUAAGGAGAGGAUCUACAGGGUAACCUAA | 0.000448 ± 0.019

Row | Sequence | pre-steady-state target cleavage rate
25 | CUUUUCCUCUGCAUCUACUGCGUUACCUAA | 0.49 ± 0.037
26 | CUUAAGGAGAGGAACUACUCGGUUACCUAA | 0.000276 ± 0.021
27 | CUUAAGGUCUGGAACUACUGGGUAACCUAA | 0.0271 ± 0.028
28 | CUUAAGGAGAGGAUCUACAGGGAUACCUAA | 0.00063 ± 0.02
29 | CUUAAGGAGACCUUCUACACCGUUACCUAA | 0.00352 ± 0.0035
30 | CUUAAGGAGACCUAGAACUGGGUAUCCUAA | 0.000242 ± 0.022
31 | CUUAAGGAGUGGAACUACUGGGUAACCUAA | 0.000859 ± 0.019
32 | CUUAAGGAGUGGAUCUAGAGGGUUACCUAA | 0.00083 ± 0.011
33 | CUUAAGGAGACCUACUACUGGGUUACCUCA | 0.000855 ± 0.01
34 | CUUAAGGACUGGAUCUACUGGGUUAACUAA | 0.116 ± 0.042
35 | CUUAAGGAGACCAUCUACUGGGUUACCUAA [g2:g18:cont:t1A] | 0.0028 ± 0.0042
36 | CUUAAGGAGACCUACUACUGGGAUACCUAA | 0.00133 ± 0.0043
37 | CUUAAGGUCUGGAUCUUCUGGGUAACCUAA | 0.0193 ± 0.011
38 | CUUAAGGAGACCUAGUACUGGGUUAUCUAA | 0.00107 ± 0.0062
39 | CUUAAGGAGACCAUCUACUGGGAUACCAAA | 0.000301 ± 0.023
40 | CUUAAGGAGUGGAUCUUCAGGGUUACCUAA | 0.000511 ± 0.011
41 | CUUAAGGAGAGGAUCUACUGCGUUACCAAA | 0.00048 ± 0.015
42 | CUUAAGGAGACGAUCUUACUGGGUUACCUAA | 0.000932 ± 0.0056
43 | CUUAUCCUCUGGAUCUACAGGGUUACCAAA | 0.237 ± 0.03
44 | CUUAAGGAGACCUACUACUGGGUUACCUGA | 0.000809 ± 0.0093
45 | CUUAAGGAGACGGUCUACUGGGUUACCUAA | 0.000638 ± 0.012
46 | CUUAAGGAGAGGAUCUACUGGGAUUCCUAA | 0.000598 ± 0.015
47 | CUUAAGGAGACCUAGAUCUGCGUUACCUAA | 0.00259 ± 0.0036
48 | CUUAACCUCUGGUUCUACUGGCUUACCUAA | 0.112 ± 0.014

Given with tabs: entries from further up.
Row	Sequence	pre-steady-state target cleavage rate
45	CUUAAGGAGACGGUCUACUGGGUUACCUAA	0.000638 ± 0.012
46	CUUAAGGAGAGGAUCUACUGGGAUUCCUAA	0.000598 ± 0.015
47	CUUAAGGAGACCUAGAUCUGCGUUACCUAA	0.00259 ± 0.0036

Continued.

Row | Sequence | pre-steady-state target cleavage rate
49 | CUUAAGCUCUGGAUCUUACUGGGUUACCUAA | 0.000838 ± 0.012
50 | CUUAAGGAGACCUUCUACUGGGUGUACCUAA | 0.00138 ± 0.0074
51 | CUUAAGGAGACCUACUACAGGGUUACGUAA | 0.00177 ± 0.0063
52 | CUUAAGGAGACGAUCUACUGGGUUAACCUAA | 0.00161 ± 0.0034
53 | CUUAAGGACUGGAUCUAGUGGCUUACCUAA | 0.00416 ± 0.0083
54 | CUUAAGGAGUGGAUCUACUGGAGUUACCUAA | 0.00147 ± 0.01
55 | CUUAAGGAGACCUAGAUGACGGGUUACCUAA | 0.000323 ± 0.018
56 | CUUAAGGAGAGGAUCUACGGGUUACCUAA | 0.000263 ± 0.023
57 | CUUAAGGAGACCAUCUACAUGGGUUACCUAA | 0.00131 ± 0.0065
58 | CUUAAGGAGACCUAGAUCUGGGUUAACCUAA | 0.000105 ± 0.025
59 | CUUAAGGACUGGAACUACUGGGUUUCCUAA | 0.00419 ± 0.011
60 | CUUAAGGAGACCUACUACUGCGUAACCUAA | 0.000195 ± 0.02
61 | GAAUUCCUCUGGAUCUACUGAGGUUACCUAA | 0.00556 ± 0.0037
62 | CUUAAGGAGACCUAGAUCUGGGUUCCCUAA | 0.000624 ± 0.012
63 | CUUAAGGAGACCUAGUACUGGGUUCCCUAA | 0.000141 ± 0.017
64 | CUUAACCUCUGGAUCUAGUCGGUUACCUAA | 0.0063 ± 0.0049
65 | CUAUUCCUCUGGAUCUACUGCGGUUACCUAA | 0.00224 ± 0.0037
66 | CUUAAGGAGACCAUCUCCUGGGUUACCUAA | 0.00259 ± 0.0065
67 | CUUAAGGAGACCUAGAUCUGAGUUACCUAA | 0.000167 ± 0.033
68 | CUUAAGGAGUGGAUCUACUGGGUAUGCUAA | 0.000171 ± 0.034
69 | CUUAAGGACUGGAUGUACUGGGUUACCAAA | 0.0328 ± 0.037
70 | CUUAAGGAGACCUUUACUGGGUUACCUAA | 0.0022 ± 0.0056
71 | CUAUUCCAUCUGGAUCUACUGGGUUACCUAA | 0.537 ± 0.053
72 | CUUAAGGAGACGAUCUACUGGGUUAGCCUAA | 0.00216 ± 0.0051

Source: the supplement of paper PMC10338343
